Results from US20240418707A1, “SELF-ORGANIZING NEURO-MUSCULAR JUNCTION CELL CULTURE MODEL” (Max-Delbrück-Centrum für Molekulare Medizin in der …, priority 2023, published 2024).
“Also recorded” adds a separate entry of the source. At least one compound was matched to its structure with a doubt left.

System: skeletal muscles in the soNMJ model
Assay: Contraction analysis of soNMJ model by live imaging
Type: cell-based, human
Conditions: soNMJ model day 75, control hPSC lines (H1, XM001); 10 μM curare
Description: Three different regions of the same coverslip were recorded for contraction analysis using a Leica SP8 confocal microscope. Each region was recorded twice for 3 minutes using brightfield with 20× zoom. To quantify the muscle contraction, each movie was analyzed individually using MuscleMotion (an open source ImageJ Macro). A reference frame was automatically detected by MuscleMotion to measure the contraction as a variation in pixel over time. The results were then plotted in Prism8 (GraphPad).

CC(=O)OCC[N+](C)(C)C [acetylcholine]
skeletal muscle contraction: increased; also recorded: accelerated the contraction of skeletal muscles
